Measured values reported in patent US11058661B2, “Compositions and methods for lowering triglycerides in a subject on concomitant statin therapy and having hsCRP levels of at least about 2 mg/L” (priority 2018, dated 2021).
At least one compound was matched to its structure with a doubt left.

Columns and labels:
[1] = AAMI pilot study: essential fatty acids in plasma and RBC; type: in vivo, human
Procedure: Blood samples (10 mL) were collected at Visit 1 (screening) and at Visits 4, 5 and 6. Analysis was performed by MSR Lipid Analysis, Scottish Crop Research Institute, Dundee, UK. The screening sample acted as baseline for the EFA measurements. Lipid was extracted from plasma, serum and RBC suspensions and converted into fatty acid methyl esters which were analyzed by gas chromatography to give fatty acid profiles as micrograms fatty acid per gram of sample (μgFA/g) and normalized area percent. RBC and plasma EFA data were collected at baseline, Day 14, 28 and 42 and summarized by visit for each treatment group. Change from baseline and percent change from baseline were also summarized. ANCOVA comparison of ethyl-EPA dose groups and ethyl-EPA versus placebo was performed.

[2] = tested on: major adverse CV events; hsCRP; conditions: cited from earlier work
[3] = tested on: subjects with Age-Associated Memory Impairment; assay: AAMI pilot study: CDR computerized cognitive test battery; type: in vivo, human; conditions: for Quality of Episodic Secondary Memory, LS mean difference versus placebo: overall; for Self-Rated Contentment, effect of treatment: p<0.001
[4] = ITT, ANCOVA, 1 g, 2 g, 4 g daily vs placebo
[5] = post-hoc analysis, 1 g, Days 14 and 28

CC/C=C\C/C=C\C/C=C\C/C=C\C/C=C\CCCC(=O)OCC [Icosapent Ethyl, ethyl eicosapentaenoate]
DPAn-3 values, change from baseline ([1]; to Day 42, 1, 2 and 4 g groups): increased substantially from baseline | EPA/AA ratio values, change from baseline ([1]; to Day 42, 1, 2 and 4 g groups): increased substantially from baseline | AA values, change from baseline ([1]; to day 42, 1, 2 and 4 g groups): decreased substantially from baseline | DGLA values, change from baseline ([1]; to day 42, 1, 2 and 4 g groups): decreased substantially from baseline | DHA values, change from baseline ([1]; to day 42, 1, 2 and 4 g groups): decreased substantially from baseline | Log hsCRP median decrease from baseline ([2]; 4 g per day, baseline to last study visit): 21.8% | Log hsCRP median between-group decrease versus placebo ([2]; 4 g/day, at year 2): 22.5% | Self-Rated Contentment, LS mean difference to placebo ([3]; ITT): no statistically significant effects | Immediate Word Recall Accuracy, LS mean difference versus placebo ([3]; ITT, 1 g, Day 14, p=0.028): statistically significant decreases | Picture Recognition Speed, difference versus placebo ([3]; ITT, 1 g, Day 14 at AM 2, p=0.084): trends for benefits | Immediate Word Recall Accuracy, LS mean difference versus placebo ([3]; ITT, 1 g, Day 14 at PM 2, p=0.020): statistically significant decreases | Word Recognition Sensitivity Index, LS mean difference versus placebo ([3]; ITT, 1 g, Day 28, p=0.024): statistically significant decreases | Picture Recognition Speed, difference versus placebo ([3]; ITT, 1 g, Day 28 at AM 1, p=0.085): trends for benefits | Picture Recognition Sensitivity Index, LS mean difference versus placebo ([3]; ITT, 1 g, Day 28 at AM 2, p=0.017): statistically significant decrease | Picture Recognition Sensitivity Index, LS mean difference versus placebo ([3]; ITT, 1 g, Day 28 at PM 2, p=0.040): statistically significant decrease | Immediate Word Recall Accuracy, LS mean difference versus placebo ([3]; ITT, 1 g, at AM 1, p=0.040): statistically significant decreases | Quality of Episodic Secondary Memory, LS mean difference versus placebo ([3]; ITT, 1 g, p=0.040): statistically significant decreases | Immediate Word Recall Accuracy, LS mean difference versus placebo ([3]; ITT, 2 g, Day 28, p=0.017): statistically significant decreases | Self-Rated Alertness, LS mean difference versus placebo ([3]; ITT, 2 g, Day 28, p=0.047): statistically significant decrease in ratings | Immediate Word Recall Accuracy, LS mean difference versus placebo ([3]; ITT, 2 g, Day 28 at AM 1, p=0.006): statistically significant decreases | Self-Rated Alertness, LS mean difference versus placebo ([3]; ITT, 2 g, Day 28 at AM 2, p=0.041): statistically significant decrease in ratings | Immediate Word Recall Accuracy, LS mean difference versus placebo ([3]; ITT, 2 g, at AM 1, p=0.028): statistically significant decreases | Quality of Episodic Secondary Memory, LS mean difference versus placebo ([3]; ITT, 2 g, p=0.035): statistically significant decreases | Spatial Working Memory Speed, LS mean difference versus placebo ([3]; ITT, 4 g, Day 14 at PM 1, p=0.048): statistically significant benefit | Word Recognition Sensitivity Index, LS mean difference versus placebo ([3]; ITT, 4 g, Day 28 at PM 2, p=0.030): statistically significant decrease | Word Recognition Sensitivity Index, LS mean difference versus placebo ([3]; ITT, 4 g, Day 42, p=0.038): statistically significant decreases | Spatial Working Memory Speed, LS mean difference versus placebo ([3]; ITT, 4 g, Day 42 at AM 1, p=0.061): trend for a benefit | Word Recognition Sensitivity Index, LS mean difference versus placebo ([3]; ITT, 4 g, at PM 2, p=0.045): statistically significant decrease | Continuity of Attention, effect of treatment ([3]; ITT, ANCOVA): no statistically significant effect of treatment | Delayed Word Recall Accuracy, effect of treatment ([3]; ITT, ANCOVA): no statistically significant effects of treatment | Digit Vigilance Targets Detected, effect of treatment ([3]; ITT, ANCOVA): no statistically significant effect of treatment | Immediate Word Recall Accuracy, effect of treatment ([3]; ITT, ANCOVA): no statistically significant effects of treatment | Numeric Working Memory Speed, effect of treatment ([3]; ITT, ANCOVA): no statistically significant effects of treatment | Picture Recognition Sensitivity Index, effect of treatment ([3]; ITT, ANCOVA): no statistically significant effects of treatment | Picture Recognition Speed, effect of treatment ([3]; ITT, ANCOVA): no statistically significant effects of treatment | Quality of Episodic Secondary Memory, effect of treatment ([3]; ITT, ANCOVA): no statistically significant effect of treatment | Self-Rated Alertness, effect of treatment ([3]; ITT, ANCOVA): no statistically significant effect of treatment | Self-Rated Calmness, effect of treatment ([3]; ITT, ANCOVA): no statistically significant effect of treatment | Spatial Working Memory Speed, effect of treatment ([3]; ITT, ANCOVA): no statistically significant effects of treatment | Speed of Memory, effect of treatment ([3]; ITT, ANCOVA): no statistically significant effects of treatment | Word Recognition Sensitivity Index, effect of treatment ([3]; ITT, ANCOVA): no statistically significant effects of treatment | Word Recognition Speed, effect of treatment ([3]; ITT, ANCOVA): no statistically significant effects of treatment | Digit Vigilance Speed, effect of treatment [3, 4]: no statistically significant effects of treatment | Power of Attention, effect of treatment [3, 4]: no statistically significant effect of treatment | Simple Reaction Time, effect of treatment [3, 4]: no statistically significant effects of treatment | Self-Rated Contentment, effect of treatment ([3]; ITT, ANCOVA): statistically significant treatment by day interaction | Choice Reaction Time, effect of treatment ([3]; ITT, ANCOVA, p=0.011): statistically significant treatment by day interaction | Spatial Working Memory Sensitivity Index, effect of treatment ([3]; ITT, ANCOVA, p=0.015): statistically significant treatment by day interaction | Quality of Working Memory, effect of treatment ([3]; ITT, ANCOVA, p=0.019): statistically significant treatment by day interaction | Numeric Working Memory Sensitivity Index, effect of treatment ([3]; ITT, ANCOVA, p=0.089): statistical trend for a treatment by day interaction | Power of Attention, LS mean difference active treatment vs placebo ([3]; ITT, at any time-point): no LS mean difference | Digit Vigilance Targets Detected, effect of treatment ([3]; Study Per Protocol (follows b236), ANCOVA, p=0.040): statistically significant treatment by time-point interaction | Continuity of Attention, effect of treatment ([3]; Study Per Protocol, ANCOVA): no statistically significant effect of treatment | Self-Rated Contentment, LS mean difference to placebo ([3]; Study Per-Protocol): no statistically significant effects | Immediate Word Recall Accuracy, LS mean difference to placebo ([3]; Study Per-Protocol, 1 g, Day 14, p=0.024): statistically significant decreases | Immediate Word Recall Accuracy, LS mean difference to placebo ([3]; Study Per-Protocol, 1 g, Day 14 at PM 2, p=0.019): statistically significant decreases | Word Recognition Sensitivity Index, LS mean difference to placebo ([3]; Study Per-Protocol, 1 g, Day 28, p=0.027): statistically significant decreases | Picture Recognition Sensitivity Index, LS mean difference versus placebo ([3]; Study Per-Protocol, 1 g, Day 28 at AM 2, p=0.020): statistically significant decreases | Picture Recognition Sensitivity Index, LS mean difference versus placebo ([3]; Study Per-Protocol, 1 g, Day 28 at PM 2, p=0.026): statistically significant decreases | Immediate Word Recall Accuracy, LS mean difference to placebo ([3]; Study Per-Protocol, 1 g, at AM 1, p=0.038): statistically significant decreases | Immediate Word Recall Accuracy, LS mean difference to placebo ([3]; Study Per-Protocol, 1 g, at AM 2, p=0.048): statistically significant decreases | Quality of Episodic Secondary Memory, LS mean difference versus placebo ([3]; Study Per-Protocol, 1 g, p=0.043): statistically significant decreases | Immediate Word Recall Accuracy, LS mean difference to placebo ([3]; Study Per-Protocol, 2 g, Day 28, p=0.017): statistically significant decreases | Self-Rated Alertness, LS mean difference versus placebo ([3]; Study Per-Protocol, 2 g, Day 28, p=0.035): statistically significant decrease in ratings | Immediate Word Recall Accuracy, LS mean difference to placebo ([3]; Study Per-Protocol, 2 g, Day 28 at AM 1, p=0.006): statistically significant decreases | Self-Rated Alertness, LS mean difference versus placebo ([3]; Study Per-Protocol, 2 g, Day 28 at AM 2, p=0.033): statistically significant decrease in ratings | Immediate Word Recall Accuracy, LS mean difference to placebo ([3]; Study Per-Protocol, 2 g, at AM 1, p=0.029): statistically significant decreases | Quality of Episodic Secondary Memory, LS mean difference versus placebo ([3]; Study Per-Protocol, 2 g, p=0.036): statistically significant decreases | Word Recognition Sensitivity Index, LS mean difference to placebo ([3]; Study Per-Protocol, 4 g, Day 42, p=0.038): statistically significant decreases | Self-Rated Calmness, LS mean difference versus placebo ([3]; Study Per-Protocol, 4 g, Day 42 at PM 1, p=0.071): statistical trend for an increase in ratings | Delayed Word Recall Accuracy, effect of treatment ([3]; Study Per-Protocol, ANCOVA): no statistically significant effects of treatment | Digit Vigilance Speed, effect of treatment ([3]; Study Per-Protocol, ANCOVA): no statistically significant effects of treatment | Immediate Word Recall Accuracy, effect of treatment ([3]; Study Per-Protocol, ANCOVA): no statistically significant effects of treatment | Numeric Working Memory Speed, effect of treatment ([3]; Study Per-Protocol, ANCOVA): no statistical significant effects of treatment | Picture Recognition Sensitivity Index, effect of treatment ([3]; Study Per-Protocol, ANCOVA): no statistically significant effects of treatment | Picture Recognition Speed, effect of treatment ([3]; Study Per-Protocol, ANCOVA): no statistical significant effects of treatment | Quality of Episodic Secondary Memory, effect of treatment ([3]; Study Per-Protocol, ANCOVA): no statistically significant effects of treatment | Self-Rated Alertness, effect of treatment ([3]; Study Per-Protocol, ANCOVA): no statistically significant effect of treatment | Self-Rated Calmness, effect of treatment ([3]; Study Per-Protocol, ANCOVA): no statistically significant effect of treatment | Simple Reaction Time, effect of treatment ([3]; Study Per-Protocol, ANCOVA): no statistically significant effects of treatment | Spatial Working Memory Speed, effect of treatment ([3]; Study Per-Protocol, ANCOVA): no statistical significant effects of treatment | Speed of Memory, effect of treatment ([3]; Study Per-Protocol, ANCOVA): no statistical significant effects of treatment | Word Recognition Sensitivity Index, effect of treatment ([3]; Study Per-Protocol, ANCOVA): no statistically significant effects of treatment | Word Recognition Speed, effect of treatment ([3]; Study Per-Protocol, ANCOVA): no statistical significant effects of treatment | Power of Attention, effect of treatment ([3]; Study Per-Protocol, ANCOVA, 1 g, 2 g, 4 g daily vs placebo): no statistically significant effect of treatment | Self-Rated Contentment, effect of treatment ([3]; Study Per-Protocol, ANCOVA): statistically significant treatment by day interaction | Choice Reaction Time, effect of treatment ([3]; Study Per-Protocol, ANCOVA, p=0.013): statistically significant treatment by day interaction | Spatial Working Memory Sensitivity Index, effect of treatment ([3]; Study Per-Protocol, ANCOVA, p=0.014): statistically significant treatment by day interaction | Quality of Working Memory, effect of treatment ([3]; Study Per-Protocol, ANCOVA, p=0.021): statistically significant treatment by day interaction | Power of Attention, difference active treatment vs placebo ([3]; Study Per-Protocol, at any time-point): no difference | Continuity of Attention versus corresponding placebo ([3]; post-hoc analysis): no general pattern of effects | Numeric Working Memory Sensitivity Index versus corresponding placebo ([3]; post-hoc analysis): only isolated improvements and declines in performance | Quality of Working Memory versus corresponding placebo ([3]; post-hoc analysis): only isolated improvements and declines in performance | Self-Rated Calmness versus corresponding placebo ([3]; post-hoc analysis): no differences between active treatment and placebo | Self-rated Alertness versus corresponding placebo [3, 5]: decreases in ratings | Self-rated Contentment versus corresponding placebo [3, 5]: decreases in ratings | Power of Attention versus the corresponding placebo ([3]; post-hoc analysis, 4 g, Day 42): overall benefit | Choice Reaction Time versus corresponding placebo ([3]; post-hoc analysis, 4 g, Day 42, every time point): superior to placebo | Spatial Working Memory Sensitivity Index versus corresponding placebo ([3]; post-hoc analysis, 4 g, Day 42, Study PP Population): overall benefit | Simple Reaction Time versus the corresponding placebo ([3]; post-hoc analysis, 4 g, PM 2 collapsed across days and several time-points on Days 14 and 42): improvements in performance | Choice Reaction Time versus corresponding placebo ([3]; post-hoc analysis, 4 g, all study days): overall benefit | Quality of Episodic Secondary Memory and contributing subtasks versus corresponding placebo ([3]; post-hoc analysis, explained by pre-existing group differences): a number of decreases | subtask measures of Speed of Memory versus corresponding placebo ([3]; post-hoc analysis, mostly for 1 g): some signs of improvement in performance
